PubChem BioAssay AID504764 – Drosophila RNAi Screening Center, 2011
In all, the deposit lists about 22,000 reagents; shown is a random part of those with a known target gene and a result. Of all reagents, 403 (1.9%) are marked active. 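Unnormalised raw counts per well; ratio z-scores behind the hit calls and whether each hit raises or lowers signal are not deposited.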 The numbers tell different reagents against one gene apart. A plus sign joins genes that one reagent is predicted to hit. Reagent sequences are not shown. The record does not give: the amount of reagent.

Screen: 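Genes whose knock-down alters Notch-dependent transcription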 (primary screen)
System: Drosophila Kc167 cells
Reagent: long dsRNA against Drosophila genes
Time to read-out: about 5 days (4 days dsRNA, then 24 h after transfection)
Treatment: transfection of constitutively active membrane-tethered Notch lacking the extracellular domain, read 24 h later
Measurement: 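Light from a Notch-responsive E(spl)m3 luciferase reporter under active Notch, with control-promoter and no-Notch reporter wells to normalise; raw counts from paired wells a and b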
Direction: induced reporter light, run 1, well a and induced reporter light, run 1, well b: higher = more light from the Notch target reporter with active Notch; control promoter light, run 1, well a and control promoter light, run 1, well b: higher = more light from the viral control promoter (cell number, transfection, viability); uninduced reporter light, run 1, well a: higher = more light from the Notch target reporter without active Notch
Call rule: 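Hit if the duplicate-averaged log2 ratio of induced to control-promoter light gives a plate-wise z beyond ±2, or induced to uninduced beyond ±1.8; weak-control or discordant-duplicate wells dropped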
Calls: active = modifier hit (raised or lowered Notch signal); inactive = not a hit

no.	gene	reagent no.	induced reporter light, run 1, well a	induced reporter light, run 1, well b	control promoter light, run 1, well a	control promoter light, run 1, well b	uninduced reporter light, run 1, well a	outcome
1	Elba2	1	1.64e5	2.12e5	1.85e5	1.82e5	17435	inactive
2	Sec20	1	1.00e5	93655	84335	66785	4945	inactive
3	Trf	1	1.86e5	1.95e5	1.09e5	1.31e5	27880	inactive
4	CG11588	1	1.58e5	1.78e5	2.00e5	1.83e5	14665	inactive
5	CG11588	2	1.57e5	1.58e5	2.01e5	1.62e5	6815	inactive
6	CG11836	1	1.78e5	1.90e5	2.21e5	2.75e5	15265	inactive
7	Lip4	1	1.29e5	1.51e5	70405	85210	18950	inactive
8	CG9040	1	1.95e5	1.82e5	2.75e5	2.98e5	8655	inactive
9	RpLP0	1	19660	20560	37090	26030	1305	inactive
10	Nup98-96	1	1.81e5	1.65e5	1.89e5	2.21e5	12230	inactive
11	Nup98-96	2	69895	60155	81590	70160	7095	inactive
12	Idgf2	1	1.85e5	2.15e5	1.88e5	1.78e5	17525	inactive
13	CG18265	1	87010	86530	1.30e5	1.15e5	2530	inactive
14	RNF220	1	1.43e5	1.62e5	2.12e5	2.03e5	15278	inactive
15	CG4372	1	30785	33810	29915	20340	2160	inactive
16	CG9018	1	1.18e5	1.39e5	2.07e5	2.42e5	6095	inactive
17	crol	1	2.18e5	1.99e5	2.80e5	2.36e5	18800	active
18	CG15529	1	1.34e5	1.25e5	1.96e5	1.87e5	12120	inactive
19	Rpn1	1	7575	6765	5480	6855	1120	inactive
20	Ucp4C	1	1.58e5	1.59e5	1.84e5	1.33e5	8345	inactive
21	CG4022	1	1.67e5	1.33e5	1.63e5	1.29e5	8192	inactive
22	CycB3	1	1.42e5	1.27e5	1.59e5	1.39e5	9810	inactive
23	SecCl	1	2.10e5	2.08e5	1.87e5	2.13e5	6425	inactive
24	Trmt61	1	1.29e5	1.24e5	1.84e5	1.79e5	11185	inactive
25	CG15386 + CG42371	1	1.14e5	1.06e5	95065	58155	9875	inactive
26	Lcp65Af	1	1.75e5	1.80e5	2.14e5	1.80e5	8055	inactive
27	fok	1	64765	58650	62770	96295	4355	inactive
28	RpS19b	1	1.58e5	1.25e5	1.86e5	1.93e5	10825	inactive
29	CG5521	1	1.63e5	1.48e5	1.81e5	1.93e5	13000	inactive
30	CG15742	1	2.01e5	1.48e5	2.21e5	2.16e5	11880	inactive
31	CG17821	1	1.22e5	97545	1.01e5	1.29e5	8355	inactive
32	CG15818	1	1.80e5	1.98e5	1.73e5	1.84e5	14450	inactive
33	CG33673	1	84865	78475	1.32e5	1.22e5	8605	inactive
34	CG13250	1	1.40e5	1.10e5	1.04e5	93330	10090	inactive
35	upd1	1	40835	26540	27290	20860	2742	inactive
36	Suv3	1	74965	1.16e5	50105	61510	6400	inactive
37	nkd	1	1.11e5	1.19e5	2.06e5	1.42e5	9255	inactive
38	dpr16	1	1.50e5	1.26e5	1.11e5	1.21e5	9320	inactive
39	dpr16	2	1.84e5	2.14e5	3.41e5	2.84e5	14600	inactive
40	CG11030	1	1.43e5	1.22e5	1.45e5	95665	7140	inactive
41	Lim3	1	62280	40845	54740	37880	2455	inactive
42	Lim3	2	27690	33880	16632	13695	3790	inactive
43	Lim3	3						inactive
44	CG12147	1	72590	73365	53360	53030	3945	inactive
45	gnu	1	1.26e5	1.47e5	82985	96095	11110	inactive
46	eIF4H2	1	1.17e5	1.24e5	1.43e5	1.38e5	10680	inactive
47	CG8814	1	1.35e5	1.57e5	1.39e5	1.59e5	16390	inactive
48	Bap111	1	2.29e5	1.91e5	2.82e5	2.76e5	17570	inactive
49	CG11655	1	46050	33720	50960	40595	6940	inactive
50	drn	1	1.27e5	1.45e5	1.05e5	1.02e5	5530	inactive

A portion taken from the entries so far, for reference:
no.	gene	reagent no.	induced reporter light, run 1, well a	induced reporter light, run 1, well b	control promoter light, run 1, well a	control promoter light, run 1, well b	uninduced reporter light, run 1, well a	outcome
23	SecCl	1	2.10e5	2.08e5	1.87e5	2.13e5	6425	inactive
24	Trmt61	1	1.29e5	1.24e5	1.84e5	1.79e5	11185	inactive
25	CG15386 + CG42371	1	1.14e5	1.06e5	95065	58155	9875	inactive
26	Lcp65Af	1	1.75e5	1.80e5	2.14e5	1.80e5	8055	inactive
